The list shows a part of the results, in another mix than the full data. The calls were merged from several studies; some rest on single wells. The list shows a part of the results. The list shows a part of the results.
Legend:
Details in all cases: stereoisomer not certain
OR2W1 = system: T1, OR2W1
T1 sequence (whole entry): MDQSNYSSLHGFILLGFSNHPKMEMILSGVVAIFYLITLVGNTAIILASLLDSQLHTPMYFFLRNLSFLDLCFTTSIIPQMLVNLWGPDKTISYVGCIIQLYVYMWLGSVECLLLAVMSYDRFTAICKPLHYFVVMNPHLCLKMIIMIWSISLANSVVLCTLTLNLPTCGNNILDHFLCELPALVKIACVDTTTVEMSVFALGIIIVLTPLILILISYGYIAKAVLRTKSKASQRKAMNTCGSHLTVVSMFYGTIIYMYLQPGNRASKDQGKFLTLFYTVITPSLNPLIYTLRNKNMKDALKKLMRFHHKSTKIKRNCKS
Method in brief: (§1)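 Whether a receptor–molecule pair is responsive (active) rests on the original authors' judgment that its measured signal was statistically different from baseline. Pairs without that judgment are non-responsive (inactive). Sources used varied assay methods, commonly transient luciferase assays in mammalian cell lines.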

OR2W3 = system: T2, OR2W3
T2 sequence (whole entry): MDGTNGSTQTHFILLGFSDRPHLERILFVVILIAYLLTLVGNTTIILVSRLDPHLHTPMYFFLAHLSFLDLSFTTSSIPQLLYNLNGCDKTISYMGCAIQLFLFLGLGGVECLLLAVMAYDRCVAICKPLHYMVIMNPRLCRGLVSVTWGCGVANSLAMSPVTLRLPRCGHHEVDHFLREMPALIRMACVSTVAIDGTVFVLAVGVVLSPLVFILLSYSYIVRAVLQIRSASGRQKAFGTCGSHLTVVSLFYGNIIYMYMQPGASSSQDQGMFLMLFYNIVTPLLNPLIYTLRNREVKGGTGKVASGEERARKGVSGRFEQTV
Method in brief: as §1

OR2W5P (Homo sapiens) = target: T3, OR2W5P (Homo sapiens) (UniProt A6NFC9)
T3 sequence (whole entry): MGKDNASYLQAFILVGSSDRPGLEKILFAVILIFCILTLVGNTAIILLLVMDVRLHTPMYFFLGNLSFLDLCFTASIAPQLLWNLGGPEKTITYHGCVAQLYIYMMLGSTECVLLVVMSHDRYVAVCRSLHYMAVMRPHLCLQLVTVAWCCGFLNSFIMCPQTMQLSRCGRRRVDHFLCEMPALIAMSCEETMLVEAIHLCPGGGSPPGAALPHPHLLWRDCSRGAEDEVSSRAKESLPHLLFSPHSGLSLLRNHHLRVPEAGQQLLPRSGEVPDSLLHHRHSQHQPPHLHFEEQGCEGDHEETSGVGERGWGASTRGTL
Method in brief: as §1

OR2Y1 = system: T4, OR2Y1
T4 sequence (whole entry): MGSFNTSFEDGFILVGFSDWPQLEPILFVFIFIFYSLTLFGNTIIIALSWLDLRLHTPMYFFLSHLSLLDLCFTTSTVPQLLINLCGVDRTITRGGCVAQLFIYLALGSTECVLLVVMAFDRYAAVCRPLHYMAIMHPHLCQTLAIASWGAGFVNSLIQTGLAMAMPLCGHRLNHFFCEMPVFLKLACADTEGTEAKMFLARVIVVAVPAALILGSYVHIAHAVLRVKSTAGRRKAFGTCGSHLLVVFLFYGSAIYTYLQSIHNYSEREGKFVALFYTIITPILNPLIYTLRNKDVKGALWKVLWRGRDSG
Method in brief: as §1

OR2Z1 (Homo sapiens) = target: T5, OR2Z1 (Homo sapiens) (UniProt Q8NG97)
T5 sequence (whole entry): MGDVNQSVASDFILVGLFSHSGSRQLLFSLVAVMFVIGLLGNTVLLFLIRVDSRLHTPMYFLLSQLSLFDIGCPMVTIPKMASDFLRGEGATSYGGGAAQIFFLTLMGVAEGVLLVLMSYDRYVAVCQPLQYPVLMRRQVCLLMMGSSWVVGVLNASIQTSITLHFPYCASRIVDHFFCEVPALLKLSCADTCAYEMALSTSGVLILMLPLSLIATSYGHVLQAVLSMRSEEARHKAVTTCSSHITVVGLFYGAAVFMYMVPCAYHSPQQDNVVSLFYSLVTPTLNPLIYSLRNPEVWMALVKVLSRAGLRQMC
Method in brief: as §1

OR3A1 (Homo sapiens) = target: T6, OR3A1 (Homo sapiens) (UniProt P47881)
T6 sequence (whole entry): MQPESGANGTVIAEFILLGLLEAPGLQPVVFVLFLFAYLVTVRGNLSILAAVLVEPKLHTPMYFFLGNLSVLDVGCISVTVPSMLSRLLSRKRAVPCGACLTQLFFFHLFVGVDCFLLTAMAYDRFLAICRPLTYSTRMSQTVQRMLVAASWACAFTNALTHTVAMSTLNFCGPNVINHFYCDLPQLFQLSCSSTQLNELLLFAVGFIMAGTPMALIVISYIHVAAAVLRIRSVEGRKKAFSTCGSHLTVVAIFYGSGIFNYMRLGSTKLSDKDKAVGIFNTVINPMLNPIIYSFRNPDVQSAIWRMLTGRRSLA
Method in brief: as §1

OR3A2 (Homo sapiens) = target: T7, OR3A2 (Homo sapiens) (UniProt P47893)
T7 sequence (whole entry): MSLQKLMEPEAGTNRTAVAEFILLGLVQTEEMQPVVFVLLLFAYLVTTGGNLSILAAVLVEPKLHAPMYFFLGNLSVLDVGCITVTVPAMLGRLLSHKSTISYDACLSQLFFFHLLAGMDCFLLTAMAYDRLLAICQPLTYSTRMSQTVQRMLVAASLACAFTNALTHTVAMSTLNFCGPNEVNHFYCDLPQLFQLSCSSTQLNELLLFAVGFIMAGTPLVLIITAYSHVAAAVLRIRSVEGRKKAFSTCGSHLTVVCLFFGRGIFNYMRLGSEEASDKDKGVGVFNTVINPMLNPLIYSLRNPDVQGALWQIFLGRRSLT
Method in brief: as §1

OR3A3 = system: T8, OR3A3
T8 sequence (whole entry): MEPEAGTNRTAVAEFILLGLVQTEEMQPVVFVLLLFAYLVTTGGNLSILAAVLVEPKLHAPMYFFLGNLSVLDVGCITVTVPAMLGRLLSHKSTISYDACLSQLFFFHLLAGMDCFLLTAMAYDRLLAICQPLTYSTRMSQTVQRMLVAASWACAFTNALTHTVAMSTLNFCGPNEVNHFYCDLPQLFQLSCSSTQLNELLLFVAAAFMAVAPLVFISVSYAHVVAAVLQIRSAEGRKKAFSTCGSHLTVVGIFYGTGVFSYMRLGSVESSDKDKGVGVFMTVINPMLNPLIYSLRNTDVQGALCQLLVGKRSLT
Method in brief: as §1

OR3A4 = system: T9, OR3A4
T9 sequence (whole entry): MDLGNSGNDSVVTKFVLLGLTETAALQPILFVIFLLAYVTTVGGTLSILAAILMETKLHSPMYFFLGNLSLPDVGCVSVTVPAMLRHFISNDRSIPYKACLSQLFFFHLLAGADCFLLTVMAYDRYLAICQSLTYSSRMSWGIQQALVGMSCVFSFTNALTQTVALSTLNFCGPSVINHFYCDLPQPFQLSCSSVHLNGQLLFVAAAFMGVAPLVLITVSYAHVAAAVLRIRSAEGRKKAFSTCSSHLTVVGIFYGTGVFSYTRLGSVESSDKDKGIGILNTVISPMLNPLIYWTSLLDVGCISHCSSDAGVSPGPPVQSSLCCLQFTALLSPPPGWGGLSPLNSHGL
Method in brief: as §1

OR4A16 (Homo sapiens) = target: T10, OR4A16 (Homo sapiens) (UniProt Q8NH70)
T10 sequence (whole entry): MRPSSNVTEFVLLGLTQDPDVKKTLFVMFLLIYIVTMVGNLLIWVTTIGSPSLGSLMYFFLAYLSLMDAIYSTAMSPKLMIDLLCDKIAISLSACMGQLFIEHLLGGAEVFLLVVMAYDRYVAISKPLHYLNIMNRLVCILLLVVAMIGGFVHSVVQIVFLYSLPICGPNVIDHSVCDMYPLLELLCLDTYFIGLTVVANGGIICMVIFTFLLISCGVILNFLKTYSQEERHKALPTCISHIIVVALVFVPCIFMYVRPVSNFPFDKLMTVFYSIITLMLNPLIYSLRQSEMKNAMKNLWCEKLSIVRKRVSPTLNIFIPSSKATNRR
Method in brief: as §1

OR4A4P (Homo sapiens) = target: T11, OR4A4P (Homo sapiens) (UniProt Q8NGN8)
T11 sequence (whole entry): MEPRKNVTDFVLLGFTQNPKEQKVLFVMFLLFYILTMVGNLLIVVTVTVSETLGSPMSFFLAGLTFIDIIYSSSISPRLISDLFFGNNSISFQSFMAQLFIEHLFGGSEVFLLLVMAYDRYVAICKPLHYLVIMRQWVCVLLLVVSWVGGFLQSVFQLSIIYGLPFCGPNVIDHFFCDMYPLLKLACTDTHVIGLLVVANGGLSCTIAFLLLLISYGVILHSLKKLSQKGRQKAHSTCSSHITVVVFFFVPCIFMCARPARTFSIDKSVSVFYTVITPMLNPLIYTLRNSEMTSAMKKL
Method in brief: as §1

OR4A5 (Homo sapiens) = target: T12, OR4A5 (Homo sapiens) (UniProt Q8NH83)
T12 sequence (whole entry): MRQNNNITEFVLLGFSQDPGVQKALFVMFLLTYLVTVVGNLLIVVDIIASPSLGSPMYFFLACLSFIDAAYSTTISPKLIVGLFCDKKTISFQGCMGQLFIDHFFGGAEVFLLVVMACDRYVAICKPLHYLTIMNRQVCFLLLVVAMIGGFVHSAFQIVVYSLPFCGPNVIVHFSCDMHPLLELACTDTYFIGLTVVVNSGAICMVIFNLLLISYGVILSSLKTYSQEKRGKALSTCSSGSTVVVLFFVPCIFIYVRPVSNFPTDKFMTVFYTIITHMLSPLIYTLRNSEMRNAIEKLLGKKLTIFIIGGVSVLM
Method in brief: as §1

OR4A5 = system: T13, OR4A5
T13 sequence (whole entry): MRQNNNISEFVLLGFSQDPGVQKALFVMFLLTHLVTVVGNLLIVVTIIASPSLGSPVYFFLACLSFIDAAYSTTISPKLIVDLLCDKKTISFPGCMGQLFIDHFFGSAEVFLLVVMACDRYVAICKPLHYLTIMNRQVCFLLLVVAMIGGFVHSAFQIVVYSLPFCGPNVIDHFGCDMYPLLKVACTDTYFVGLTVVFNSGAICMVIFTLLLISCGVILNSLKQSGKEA
Method in brief: as §1

OR4B1 (Homo sapiens) = target: T14, OR4B1 (Homo sapiens) (UniProt Q8NGF8)
T14 sequence (whole entry): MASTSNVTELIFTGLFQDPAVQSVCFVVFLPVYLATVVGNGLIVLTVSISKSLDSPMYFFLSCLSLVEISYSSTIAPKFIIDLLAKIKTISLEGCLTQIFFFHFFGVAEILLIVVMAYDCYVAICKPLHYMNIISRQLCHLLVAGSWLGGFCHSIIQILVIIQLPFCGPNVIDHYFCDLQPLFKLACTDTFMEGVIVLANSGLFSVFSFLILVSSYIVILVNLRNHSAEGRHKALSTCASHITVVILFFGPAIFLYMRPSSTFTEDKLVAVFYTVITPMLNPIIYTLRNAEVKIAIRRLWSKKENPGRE
Method in brief: as §1

OR4C11 (Homo sapiens) = target: T15, OR4C11 (Homo sapiens) (UniProt Q6IEV9)
T15 sequence (whole entry): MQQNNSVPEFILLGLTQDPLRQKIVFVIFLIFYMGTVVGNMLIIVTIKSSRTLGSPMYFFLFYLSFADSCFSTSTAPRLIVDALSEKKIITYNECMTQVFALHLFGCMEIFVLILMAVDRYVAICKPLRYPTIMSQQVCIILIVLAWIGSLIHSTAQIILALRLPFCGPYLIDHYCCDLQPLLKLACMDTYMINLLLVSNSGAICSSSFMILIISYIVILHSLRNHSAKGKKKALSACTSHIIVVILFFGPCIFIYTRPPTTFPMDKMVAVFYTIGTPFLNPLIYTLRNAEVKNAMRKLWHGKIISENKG
Method in brief: as §1

OR2W3 (Homo sapiens) = target: T16, OR2W3 (Homo sapiens) (UniProt Q7Z3T1)
T16 sequence (whole entry): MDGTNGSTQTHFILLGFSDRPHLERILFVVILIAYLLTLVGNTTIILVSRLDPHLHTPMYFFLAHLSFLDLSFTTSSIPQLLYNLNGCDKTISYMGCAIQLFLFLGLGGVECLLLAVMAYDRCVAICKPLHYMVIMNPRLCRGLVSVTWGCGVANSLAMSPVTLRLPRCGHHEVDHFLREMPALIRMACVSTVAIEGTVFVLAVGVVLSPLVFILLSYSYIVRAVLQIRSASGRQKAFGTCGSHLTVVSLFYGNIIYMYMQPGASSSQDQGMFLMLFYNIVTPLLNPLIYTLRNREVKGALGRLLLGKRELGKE
Method in brief: as §1

Measured: odorant receptor agonist call;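 note: active if original authors judged signal statistically different from baseline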

CC(=O)OCC=C(C)CCC=C(C)C
active: OR2W1 | OR3A1 (Homo sapiens) | OR4A5 (Homo sapiens)
not listed: OR2W3 (Homo sapiens)
inactive: all other assays above

CC(C)(O)CCCC1=CCC(C=O)CC1 (centres undefined)
active: OR4A5 (Homo sapiens)
inactive: OR2W3 (Homo sapiens) | OR3A3 | OR3A4

CC(C)=CCCC(C)=CC=O
active: OR2W1 | OR4A5 (Homo sapiens)
not listed: OR2W3 (Homo sapiens)
inactive: all other assays above

C=CCSCC=C
not listed: OR2W3 (Homo sapiens)
inactive: all other assays above

Reference: the M2OR odorant receptor database
